The substances below were run on hemorrhagic shock (assay: Hemorrhagic shock model, Example 1 (bled to MAP 40 mmHg, 0.9% NaCl resuscitation): blood cells, hematocrit, hepatic blood flow). Conditions: 5 mg/kg i.v. 30 minutes after induction of shock.
Format: in vivo, Wistar rats
Procedure: Adult male specific pathogen-free Wistar rats (Harlan CPB, Zeist, The Netherlands), weighing 350 to 400 g were used after a minimum seven-day acclimation period. The animals were housed under barrier conditions and kept at 25° C. with a twelve-hour light/dark cycle. Rats were allowed free access to water and chow (−). All procedures were performed in accordance with the Principles of Laboratory Animal Care (NIH publication No. 86-23, revised 1985) under a protocol approved by the Committee on Animal Research of the Erasmus University (protocol EUR 365).
The rats were fasted overnight but were allowed free access to water before the experiment. Subsequent to endotracheal intubation, the rats were mechanically ventilated with an isoflurane (−) N2O/O2 mixture at 60 breaths/minute. Body temperature was continuously maintained at 37.5° C. by placing the animals on a thermo controlled “half-pipe” (UNO, The Netherlands). Polyethylene tubes (PE-50, Becton Dickinson; St. Michielsgestel, The Netherlands) were flushed with heparin and placed via the right carotid artery in the aorta and in the right internal jugular vein. The animals received no heparin before or during the experiment.
Mean arterial pressures (MAP) was measured using transducers (Becton Dickinson) that were connected in line to an electronic recorder (Hewlett Packard, 78354-A Germany) for electronically calculated mean pressures and continuous measurement of the animal's blood pressure. Under semi-sterile conditions, a median laparotomy was performed and ultrasonic perivascular flow probes (Transonic Systems Inc, Maastricht, The Netherlands) were placed on the common hepatic artery and the portal vein. A supra pubic catheter was placed to monitor the urine production during and after resuscitation. […]
The hepatic arterial blood flow (QHA) and hepatic portal venous blood flow (QVP) were measured with transit time ultrasonic perivascular flow probes, connected to an ultrasonic meter (T201; Transonic Systems, Inc., Maastricht, NL). Systemic and hepatic hemodynamics were continuously measured. […]
For “AQGV [synthetic tetrapeptide, alanine replacement variant of LQGV from loop two of the β-subunit of hCG]”, the “hematocrit following trauma-hemorrhage, treated vs non-treated groups” value was “similar”.
In the case of “LAGV [synthetic tetrapeptide, alanine replacement variant of LQGV from loop two of the β-subunit of hCG]”, the “hematocrit following trauma-hemorrhage, treated vs non-treated groups” value is reported as “similar”.
For “LQGV [synthetic tetrapeptide, part of the primary structure of loop two of the β-subunit of hCG]”, the “hematocrit following trauma-hemorrhage, treated vs non-treated groups” value was “similar”.

Reference: patent publication US20080267936A1, “Treatment of trauma-hemorrhage with short oligopeptides” (Biotempt B.V., priority 2007, published 2008)
